# Laboratory results published in PubChem BioAssay AID2685 (National Center for Advancing Translational Sciences (NCATS), 2010).
# This is one part of the list. The main result of the screen is listed elsewhere. These columns were measured beside it and carry no call. The list favours compounds with an active or inconclusive main result. Words in brackets tell the shape of the fitted curve; partial curves, single points and poor fits give uncertain potencies.
# Assay: qHTS Assay for Lipid Storage Modulators in Drosophila S3 Cells;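 as to cell number change: cells counted by Cell Tracker Red CMTPX staining in the red channel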
# Conditions: BODIPY lipid droplet fluorescence, 18-24 h; for cell number change: measured here: cell count max response, cells fed with added oleic acid
# Procedure, shortened: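 Drosophila S3 cells loaded with oleic acid (400 uM, as added) and compounds at several concentrations; lipid droplets imaged by 488-nm laser-scanning cytometry, 500–530 nm intensity and object ratio to cell channel. Percent activity normalized to 20 uM Triacsin C.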
# [1] = measured here: lipid fluorescence (Fed channel) AC50, cells fed with added oleic acid
# [2] = measured here: cell number channel AC50, cells fed with added oleic acid
Compound,cell number change [%],AC50 [1],AC50 [2]
CCN(CC(=O)Nc1ccc(OC)cc1)C(=O)CN1C(=O)NC(C)(c2ccc3ccccc3c2)C1=O (stereo unspecified),27.6,"0.291 µM [rising, full curve]",–
CCCCC(=O)Nc1ccc(C(=O)Nc2ccc(S(=O)(=O)Nc3ccc(C)cc3)cc2)cc1,1.11,"29.1 µM [falling, single point]","6.51 µM [falling, single point]"
CN1C(=O)C(Cl)(Cl)C(=O)c2ccccc21,-91,"20.6 µM [falling, partial curve]","29.1 µM [falling, single point]"
Cn1cc(-c2ccccc2)cc(C#N)c1=O,-30,–,–
CC(=O)c1ccc(N2CCN(S(=O)(=O)c3ccc4c(c3)CC(C)N4C(=O)C3CC3)CC2)cc1 (stereo unspecified),-5.38,"29.1 µM [falling, single point]",–
CCCSc1nc(C)c(C(C)=O)cc1C#N,17.9,"6.51 µM [falling, single point]","0.517 µM [falling, full curve]"
O=C(NCc1ccco1)c1nc2c(nnn2Cc2ccccc2Cl)c(=O)[nH]1,-13.4,"4.11 µM [falling, partial curve]",–
Cc1c(NC(=S)/C=C2\N(C)c3ccccc3C2(C)C)c(=O)n(-c2ccccc2)n1C,-16.1,"29.1 µM [falling, single point]",–
COc1cc(C(=S)N2CCCC2)cc(Cl)c1O,-96.1,"23.1 µM [falling, single point]","18.4 µM [falling, partial curve]"
CCOC(=O)NC(=O)CSc1nc2ccc(C)cc2[nH]1,-15.8,"16.4 µM [rising, single point]",–
Clc1ccc(CCNc2nc3ccccc3s2)cc1,-32,"29.1 µM [falling, single point]","29.1 µM [falling, single point]"
CN(C)c1ccc(Nc2c3c4c(cccc4n(C)c2=O)C(=O)c2ccccc2-3)cc1,-62.2,"1.84 µM [falling, full curve]","2.06 µM [falling, full curve]"
Cn1c(COc2ccc3ccccc3c2)nnc1SCC(=O)O,4.18,–,–
CC1CCN(S(=O)(=O)c2ccc(C(=O)NCc3ccc4c(c3)OCO4)cc2)CC1,48.7,"29.1 µM [rising, single point]","29.1 µM [rising, single point]"
COc1cc(NC(=O)COc2ccc(Cl)cc2)ccc1-c1cc2ccccc2oc1=O,-0.262,"1.46 µM [rising, full curve]",–
O=C(c1ccccc1)c1ccccc1C(=O)N1CCN(C(=O)c2ccccc2)CC1,–,"0.00517 µM [rising, partial curve, poor fit]",–
O=C(/C=C/c1ccccc1F)c1cccc([N+](=O)[O-])c1,-37,"9.2 µM [falling, partial curve]","0.326 µM [falling, partial curve, poor fit]"
CCCc1cc(C(=O)NNC(=S)NCc2ccccc2)cs1,-117,"16.4 µM [falling, single point]","20.6 µM [falling, partial curve]"
CS(=O)(=O)Nc1ccc(OCc2ccccc2)cc1,–,"29.1 µM [rising, single point]","3.26 µM [falling, single point]"
O=C(CSc1ccccn1)Nc1nc2ccccc2s1,17,"2.91 µM [rising, partial curve]",–

Compound,cell number change [%],AC50 [1],AC50 [2]
O=C(NC1CC2CCCC(C1)N2C(=O)Nc1ccccc1)c1ccccc1 (stereo unspecified),16.7,"11.6 µM [rising, single point]",–
O=C(COC(=O)c1ccc([N+](=O)[O-])o1)c1ccccc1,-8.04,"32.6 µM [rising, single point]",–
CCc1ccc(O)c(-c2cc(C(=O)Nc3cccnc3)[nH]n2)c1,-1.81,–,–
O=C(Cc1ccc(Br)cc1)N1CCN(c2ccccc2)CC1,19.8,–,–
Oc1ccc(N=Nc2c(O)ccc3ccccc23)cc1,-155,"23.1 µM [falling, single point]","20.6 µM [falling, single point]"
c1ccc(-c2csc(N3CCc4ccccc4C3)n2)cc1,22,–,–
NS(=O)(=O)c1cccc(NS(=O)(=O)c2cccc(C(F)(F)F)c2)c1,5.03,"1.84 µM [falling, full curve]","1.3 µM [falling, full curve, poor fit]"
Cc1ccc(N(C(=O)C(F)(F)F)C(C(=O)NC2CCCCC2)c2cccs2)cc1C (stereo unspecified),17.5,"3.26 µM [rising, single point]",–
O=C(Nc1ccc(Oc2cccc(C(F)(F)F)c2)nc1)c1ccccc1,-23.3,–,–
COC(=O)C(CC(C(=O)OC)C(=O)OC)C(=O)OC,-10,"0.184 µM [rising, full curve, poor fit]",–
CC(C)(C)C(=O)Nc1nc(=S)ss1,-17.9,"32.6 µM [falling, partial curve, poor fit]",–
CN(CCc1ccccn1)c1ccc([N+](=O)[O-])cn1,32.4,"1.16 µM [rising, partial curve]","0.58 µM [rising, full curve, poor fit]"
CN1CCn2c1nc(N1CCCCC1)nc2=O,-1.16,"0.461 µM [falling, full curve]",–
CC(C1CC1)N(Cc1ccccc1)C(=O)NC(=O)c1ccc(F)cc1 (stereo unspecified),-34.7,–,"0.82 µM [falling, full curve, poor fit]"
CCOC(=O)C1CCN(C(=O)COc2ccc(N(C)S(=O)(=O)c3cccs3)cc2)CC1,-11.7,–,–
CCC(C)(C)n1nnnc1C(c1cc2cc(C)ccc2[nH]c1=O)N1CCCc2ccccc21 (stereo unspecified),90.4,–,–
C#CCSc1nnc(-c2ccc(O)cc2)o1,42.6,–,–
CC(C)(C)n1ncc2c(=O)n(CC(=O)Nc3ccc4c(c3)OCO4)cnc21,-10.6,"0.731 µM [rising, single point]",–
O=C(OCc1nnc(-c2ccc(Cl)cc2)o1)c1ccncc1,-2.45,–,–
CN(C(=O)CCl)C1CCCc2ccccc21 (stereo unspecified),2.88,"6.51 µM [rising, single point]","5.8 µM [rising, single point]"

# As entered above:
# In cell number change [%], CN(CCc1ccccn1)c1ccc([N+](=O)[O-])cn1 is listed with 32.4
# In cell number change [%], Oc1ccc(N=Nc2c(O)ccc3ccccc23)cc1 is listed with -155

# Remaining list, next part

Compound,cell number change [%],AC50 [1],AC50 [2]
COCCCNC(=O)C(F)(F)C(F)(F)C(=O)NCCCOC,-4.87,"1.84 µM [falling, full curve]",–
CN(C1CCCCC1)S(=O)(=O)c1ccc(Cl)c(C(=O)O)c1,-19,"0.651 µM [falling, full curve, poor fit]",–
Cc1ccccc1NC(=O)Nc1ccccc1Br,144,–,–
COc1ccc(S(=O)(=O)NCCSC(C)(C)C)cc1Cl,-23.6,"0.116 µM [falling, single point]",–
CCOC(=O)C(C)Oc1ccc2c(C)cc(=O)oc2c1C(C)=O (stereo unspecified),40.5,–,–
CC(=O)Nc1ccc(S(=O)(=O)Nc2nnc(C3CCCCC3)s2)cc1,–,"4.61 µM [falling, partial curve]",–
CCOC(=O)c1c(NC(=O)Cn2nc(C(F)(F)F)cc2C)sc2c1CCC2,7.62,"29.1 µM [rising, partial curve, poor fit]",–
O=C(c1ccc2ccccc2c1)N1CCN(c2ccccn2)CC1,-1.59,"29.1 µM [rising, single point]",–
CCOc1ncccc1C(=O)Nc1ccc2c(c1)OCO2,109,–,"0.82 µM [rising, partial curve, poor fit]"
Cc1cc2c(NC3CCCCC3)ncnc2s1,-22.1,–,–
COc1ccc(C(=O)CSc2nnc(-c3cnccn3)n2Cc2ccco2)cc1,9.05,–,–
COc1ccc(C(=O)Nc2cnn(Cc3ccc(Cl)cc3)c2)cc1OC,-0.918,"2.31 µM [rising, single point]",–
COc1ccc(N2C(=O)CC2(/C=C/c2ccccc2OC)C(=O)NC2CCCC2)cc1 (stereo unspecified),-27.6,"14.6 µM [falling, partial curve]",–
Cc1nc2ccc(C(=O)Nc3ccc4nc[nH]c4c3)cc2[nH]1,0.189,"3.26 µM [rising, partial curve, poor fit]",–
COc1nc(C)ccc1-c1noc(-c2ccccn2)n1,–,"2.06 µM [rising, partial curve]","2.06 µM [rising, partial curve]"
CCCCCN(C(=O)CCC(=O)OCC(=O)NCc1ccc(OC)cc1)c1c(N)n(CCCC)c(=O)[nH]c1=O,-13.9,"23.1 µM [falling, single point]","0.651 µM [rising, partial curve, poor fit]"
O=C(CSc1nccc2ccccc12)N1CCN(c2ccccn2)CC1,92,"5.17 µM [rising, partial curve]","2.91 µM [rising, full curve]"
Cc1ccc(-n2nnnc2SCC(=O)N2CCN(C(=O)c3ccco3)CC2)c(C)c1,53.1,"29.1 µM [rising, single point]","29.1 µM [rising, single point]"
O=C(NC1CCCCC1)N(CCO)Cc1cc2cc3c(cc2[nH]c1=O)OCCO3,39.1,–,"16.4 µM [rising, single point]"
C=CCn1c(SCC(=O)Nc2c(C)n(C)n(-c3ccccc3)c2=O)nc2ccccc2c1=O,32.1,"0.00461 µM [falling, full curve, poor fit]","9.2 µM [rising, single point]"
